From PubChem BioAssay AID2685 (National Center for Advancing Translational Sciences (NCATS), 2010)
This is one part of the list. These are further read-outs of the screen, such as a control signal, another cell line or another target. No call is given for them. Compounds called inactive in the main read-out are mostly missing here. The note in brackets gives the kind of curve behind each potency; many fits are weak.

Test: qHTS Assay for Lipid Storage Modulators in Drosophila S3 Cells;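 for cell number change: cells counted by Cell Tracker Red CMTPX staining in the red channel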
Settings: BODIPY lipid droplet fluorescence, 18-24 h; for cell number change: measured here: cell count max response, cells fed with added oleic acid
How it was run: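 Drosophila S3 cells got compounds at several concentrations plus oleic acid (400 uM solution). Laser-scanning cytometry with 488 nm excitation read lipid droplets at 500-530 nm and cells at 575-640 nm. Percent activity was relative to 20 uM Triacsin C.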

[1] = measured here: cell number channel AC50, cells fed with added oleic acid
[2] = measured here: lipid fluorescence (Fed channel) AC50, cells fed with added oleic acid

| SMILES | cell number change | AC50 [1] | AC50 [2] |
| --- | --- | --- | --- |
| CCOC(=O)N1CCN(CCC(=O)c2ccc(Br)cc2)CC1 | -39.5% | 23.1 µM [falling, single point] | 29.1 µM [falling, single point] |
| COc1ccc(-c2nc(=S)c3c([nH]2)Oc2ccc(C)cc2C3)cc1O | -12.9% | – | 29.1 µM [falling, single point] |
| c1ccc(C[C@H]2CNCCN2CC2CCCCC2)cc1 | – | – | 0.326 µM [falling, single point] |
| O=C1CCN(Cc2ccccc2)CCN1[C@H](COc1ccccc1)Cc1ccccc1 | 2.1% | – | – |
| COc1ccc(C(=O)NCCCCCC(=O)N/N=C/c2ccco2)cc1OC | 13.9% | – | 9.2 µM [rising, single point] |
| CN(C(=O)COC(=O)c1ccc2c(=O)n3c(nc2c1)CCC3)C1CCS(=O)(=O)C1 (configuration not stated) | 7.17% | – | – |
| Cc1cc(C)n2nc(C(=O)N3CCCC(Nc4ccc(F)c(F)c4)C3)cc2n1 (configuration not stated) | -11.4% | – | 32.6 µM [falling, single point] |
| COc1ccccc1-c1coc2cc(O)cc(O)c2c1=O | 22.9% | – | – |
| CCOC(=O)c1c2ccc(OCC(=O)N/N=C/c3ccc(C)cc3)cc2n2ccccc12 | 118% | – | – |
| CC(C)[C@H](NC(N)=O)C(=O)Nc1ccc(F)c(Cl)c1 | 26.9% | 1.84 µM [falling, partial curve] | 29.1 µM [rising, single point] |
| O=C(O)COc1ccc(/C=C/C(=O)c2ccc(C3CCCCC3)cc2)cc1 | -5.26% | – | – |
| CCOC(=O)C1CCN(S(=O)(=O)c2ccc(CN3C(=O)c4cccnc4C3=O)cc2)CC1 | 4.86% | 0.731 µM [rising, single point] | – |
| O=C(c1cc(-c2cccs2)on1)N1CCN(c2ccccc2)CC1 | 1.48% | – | 0.82 µM [falling, full curve, poor fit] |
| Cc1ccc([C@@H]2[C@@H]3C(=O)N(C)C(=O)[C@@H]3[C@]3(C)C(=O)N(Cc4ccccc4)CC(=O)N23)o1 | 3.29% | – | 29.1 µM [rising, single point] |
| Nc1ncnc2c1ncn2[C@@H]1O[C@H](COP(=O)(O)O)[C@@H](O)[C@H]1O | -21% | – | 0.82 µM [falling, full curve, poor fit] |
| O=C(Cc1ccccc1)N1CCN(S(=O)(=O)c2ccc([N+](=O)[O-])cc2)CC1 | 17.2% | – | – |
| Cn1cccc1C(=O)OCC(=O)NC1CCS(=O)(=O)C1 (configuration not stated) | – | 0.13 µM [falling, full curve, poor fit] | 0.13 µM [falling, full curve, poor fit] |
| Cc1ccc(NC(=O)CSCC(=O)Nc2ccc(S(=O)(=O)N3CCOCC3)cc2)cc1 | – | 0.13 µM [rising, full curve, poor fit] | 11.6 µM [rising, partial curve] |
| COc1ccc2cc(C#N)c(N3CCOCC3)nc2c1 | -8.99% | – | – |
| C=CCn1c(SCc2nnc(-c3ccccc3)o2)nnc1C(O)c1ccccc1 (configuration not stated) | – | – | 6.51 µM [rising, partial curve] |

Quoted from the listing.
Entry of `CCOC(=O)N1CCN(CCC(=O)c2ccc(Br)cc2)CC1` under AC50 [1]: 23.1 µM [falling, single point]
Entry of `O=C(c1cc(-c2cccs2)on1)N1CCN(c2ccccc2)CC1` under AC50 [2]: 0.82 µM [falling, full curve, poor fit]

Additional results.

| SMILES | cell number change | AC50 [1] | AC50 [2] |
| --- | --- | --- | --- |
| COc1cc(OC)cc(C(=O)NCC(=O)OCc2ccc(Cl)c(Cl)c2)c1 | -6.74% | – | – |
| CN(C)CCN(C(=O)c1ccc(S(=O)(=O)N(C)C)cc1)c1nc2cc3c(cc2s1)OCCO3 | 16% | 5.8 µM [falling, single point] | 6.51 µM [falling, single point] |
| Cc1ccc(C(=O)Nc2nnc(S(=O)(=O)Nc3ccccc3C)s2)cc1C | 21.9% | – | 0.731 µM [rising, single point] |
| O=C(NCCN1CCCC1)c1cc(-c2ccncc2)nc2ccc(S(=O)(=O)N3CCOCC3)cc12 | -1.56% | – | 6.51 µM [rising, full curve, poor fit] |
| COC(=O)C1=CN(C)C=C(C(=O)OC)C1c1ccc(Cl)cc1Cl | -104% | 2.59 µM [falling, full curve] | 9.2 µM [falling, partial curve] |
| CCOc1ccc(CN2C(=O)c3ccccc3Sc3ccc(C(=O)NCCCN4CCOCC4)cc32)cc1 | 43.4% | 0.164 µM [rising, full curve, poor fit] | – |
| Cn1c(=O)c2c(nc(Br)n2CCSc2ncccn2)n(C)c1=O | -15.1% | – | 0.731 µM [rising, single point] |
| C/C(=N\NC(=O)c1ccc([N+](=O)[O-])c(C)c1)c1ccccc1Cl | 16.3% | – | 10.3 µM [falling, partial curve, poor fit] |
| COCc1ccc(-c2ccc3c(c2)c(C#Cc2ccsc2)c(-c2cc(OC)cc(OC)c2)n3C)cc1 | -20.5% | – | 7.31 µM [rising, single point] |
| COc1ccccc1C(=O)NCc1ccc2c(c1)OCO2 | – | 0.411 µM [rising, full curve, poor fit] | 0.0731 µM [rising, partial curve, poor fit] |
| COc1cccc(/C=N/NC(=S)NCc2ccco2)c1OC | 14.3% | 0.461 µM [rising, full curve] | 0.517 µM [rising, full curve] |
| O=S(=O)(NCC1CCN(c2ccc(S(=O)(=O)N3CCOCC3)cc2)CC1)c1ccc(F)cc1 | -11.7% | – | 5.8 µM [falling, partial curve] |
| Cc1ccc(OCC(=O)N2CCC(Cc3ccccc3)CC2)c([N+](=O)[O-])n1 | -5.01% | – | 2.91 µM [rising, single point] |
| O=C(CSc1ccc2nnc(-c3cccnc3)n2n1)N1CCc2ccccc21 | – | 0.259 µM [rising, partial curve, poor fit] | – |
| COc1ccc(N2C(=O)C3C(c4ccc(C(=O)O)cc4)NC(Cc4ccccc4)(C(=O)O)C3C2=O)c([N+](=O)[O-])c1 (configuration not stated) | 148% | 23.1 µM [rising, partial curve] | 29.1 µM [rising, single point] |
| Cc1ccc(-c2n[nH]c3c2CCC3)cc1 | -36.6% | 20.6 µM [falling, single point] | 18.4 µM [falling, single point] |
| CCCOc1ccc(C(=O)N2CCN(c3ccc(N)cc3Cl)CC2)cc1 | – | 1.3 µM [rising, partial curve] | 6.51 µM [rising, single point] |
| CC(C)Cn1c([N+](=O)[O-])nc2c1c(=O)[nH]c(=O)n2C | -50.4% | 25.9 µM [falling, partial curve, poor fit] | 9.2 µM [falling, partial curve] |
| Cn1c(NC(=O)c2cc(Cl)ccc2Cl)cc(=O)n(C)c1=O | 17% | 0.731 µM [rising, full curve, poor fit] | 14.6 µM [rising, partial curve] |
| CCN(Cc1ccccc1)S(=O)(=O)c1ccc(C(=O)N(CCCN(C)C)c2nc3cc4c(cc3s2)OCO4)cc1 | 7.17% | – | 23.1 µM [falling, single point] |

| SMILES | cell number change | AC50 [1] | AC50 [2] |
| --- | --- | --- | --- |
| CCN(CC)c1ccc(/C=N/NC(=O)c2cnccn2)c(O)c1 | 5.76% | 4.61 µM [falling, single point] | – |
| O=C1CN(C(=O)N[C@@H](Cc2ccccc2)C(=O)N[C@H](C(=O)O)c2ccccc2)c2ccccc2N1 | 3.82% | – | – |
| OC1CCN(Cc2cccc3ccccc23)CC1 | 0.903% | – | 1.16 µM [falling, full curve, poor fit] |
| CCc1ccc2c(c1)c1nc(C)sc1n2CC | – | – | 0.00461 µM [rising, full curve, poor fit] |
| CC1CC(C)CN(C(=O)CNC(=O)c2ccc3ccccc3c2)C1 (configuration not stated) | 35.9% | 0.794 µM [rising, full curve, poor fit] | 8.91 µM [rising, partial curve] |
| CC(C)c1nc2oc3c(N4CCN(C)CC4)ncnc3c2c2c1CCC2 | 2.08% | – | 0.00411 µM [falling, full curve, poor fit] |
| C=CCN(CC=C)C(=O)Nc1cc(Cl)ccc1OC | -2.65% | – | 9.2 µM [rising, single point] |
| COc1ccc(C2NS(=O)(=O)OCC2C)cc1 (configuration not stated) | 27.8% | – | – |
| Cc1cc(C(=O)CCl)c(C)n1CCc1ccc(Cl)cc1 | -38.8% | – | – |
| CN1CCN(C(=O)c2ccc3c(c2)N(Cc2ccc(F)cc2)C(=O)c2ccccc2S3=O)CC1 (configuration not stated) | -2.59% | – | – |
| CCNC(=S)NNC(=O)c1cc(-c2cccc(OC)c2)nc2ccccc12 | – | 2.31 µM [rising, partial curve] | – |
| Cc1ccc2nc(-c3ccc(SCC(=O)Nc4ccc5c(c4)OCCO5)nc3)[nH]c2c1 | -51.2% | 32.6 µM [falling, single point] | 2.91 µM [falling, partial curve] |
| CCOCCCN1C(=O)CN(C2CCC(C)CC2)C(=O)C1c1ccc(C)cc1 (configuration not stated) | – | – | 5.17 µM [falling, partial curve] |
| Cc1cc(C(=O)Nc2cccc(-c3ccc(N4CCOCC4)nn3)c2)ccc1[N+](=O)[O-] | 32.6% | 9.2 µM [rising, single point] | – |
| COc1ccc(N2CC(C(=O)Nc3cccc(S(=O)(=O)N4CCCC4)c3)CC2=O)c(OC)c1 (configuration not stated) | 54.1% | – | 6.51 µM [falling, single point] |
| Cc1cnc(=O)[nH]c1SCc1ccc([N+](=O)[O-])cc1 | -12.8% | – | – |
| O=C(/C=C/c1ccc(Br)o1)Nc1nnc(C2CC2)s1 | 32.4% | 32.6 µM [rising, partial curve, poor fit] | – |
| Cc1ccc(C)c(N(C(=O)c2csnn2)C(C(=O)NC2CCCC2)c2ccncc2)c1 (configuration not stated) | -1.9% | – | – |

An excerpt from above in order of number of heavy atoms, largest number first:

| SMILES | cell number change | AC50 [1] | AC50 [2] |
| --- | --- | --- | --- |
| CCN(Cc1ccccc1)S(=O)(=O)c1ccc(C(=O)N(CCCN(C)C)c2nc3cc4c(cc3s2)OCO4)cc1 | 7.17% | – | 23.1 µM [falling, single point] |
| O=C1CN(C(=O)N[C@@H](Cc2ccccc2)C(=O)N[C@H](C(=O)O)c2ccccc2)c2ccccc2N1 | 3.82% | – | – |
| CN1CCN(C(=O)c2ccc3c(c2)N(Cc2ccc(F)cc2)C(=O)c2ccccc2S3=O)CC1 (configuration not stated) | -2.59% | – | – |
| COc1ccc(N2CC(C(=O)Nc3cccc(S(=O)(=O)N4CCCC4)c3)CC2=O)c(OC)c1 (configuration not stated) | 54.1% | – | 6.51 µM [falling, single point] |
| Cc1cc(C(=O)Nc2cccc(-c3ccc(N4CCOCC4)nn3)c2)ccc1[N+](=O)[O-] | 32.6% | 9.2 µM [rising, single point] | – |
| CCOCCCN1C(=O)CN(C2CCC(C)CC2)C(=O)C1c1ccc(C)cc1 (configuration not stated) | – | – | 5.17 µM [falling, partial curve] |
| CCNC(=S)NNC(=O)c1cc(-c2cccc(OC)c2)nc2ccccc12 | – | 2.31 µM [rising, partial curve] | – |
| CC(C)c1nc2oc3c(N4CCN(C)CC4)ncnc3c2c2c1CCC2 | 2.08% | – | 0.00411 µM [falling, full curve, poor fit] |
| CC1CC(C)CN(C(=O)CNC(=O)c2ccc3ccccc3c2)C1 (configuration not stated) | 35.9% | 0.794 µM [rising, full curve, poor fit] | 8.91 µM [rising, partial curve] |
| CCN(CC)c1ccc(/C=N/NC(=O)c2cnccn2)c(O)c1 | 5.76% | 4.61 µM [falling, single point] | – |
| Cc1cc(C(=O)CCl)c(C)n1CCc1ccc(Cl)cc1 | -38.8% | – | – |
| O=C(/C=C/c1ccc(Br)o1)Nc1nnc(C2CC2)s1 | 32.4% | 32.6 µM [rising, partial curve, poor fit] | – |
| OC1CCN(Cc2cccc3ccccc23)CC1 | 0.903% | – | 1.16 µM [falling, full curve, poor fit] |
| CCc1ccc2c(c1)c1nc(C)sc1n2CC | – | – | 0.00461 µM [rising, full curve, poor fit] |
